Results from article PMC6883375, “Enolase From Aspergillus fumigatus Is a Moonlighting Protein That Binds the Human Plasma Complement Proteins Factor H, FHL-1, C4BP, and Plasminogen” (Frontiers in Immunology, 2019).
These are yes or no findings as the source states them, for the method shown. Some binding calls cover weakened binding; strength is not graded here.

By UniProt entry, the sequences of proteins in these tests, tags left out. Where a name states a change or a piece, a line headed by the entry shows the natural chain unless it says otherwise. Residues count along the entry.
UniProt P04003: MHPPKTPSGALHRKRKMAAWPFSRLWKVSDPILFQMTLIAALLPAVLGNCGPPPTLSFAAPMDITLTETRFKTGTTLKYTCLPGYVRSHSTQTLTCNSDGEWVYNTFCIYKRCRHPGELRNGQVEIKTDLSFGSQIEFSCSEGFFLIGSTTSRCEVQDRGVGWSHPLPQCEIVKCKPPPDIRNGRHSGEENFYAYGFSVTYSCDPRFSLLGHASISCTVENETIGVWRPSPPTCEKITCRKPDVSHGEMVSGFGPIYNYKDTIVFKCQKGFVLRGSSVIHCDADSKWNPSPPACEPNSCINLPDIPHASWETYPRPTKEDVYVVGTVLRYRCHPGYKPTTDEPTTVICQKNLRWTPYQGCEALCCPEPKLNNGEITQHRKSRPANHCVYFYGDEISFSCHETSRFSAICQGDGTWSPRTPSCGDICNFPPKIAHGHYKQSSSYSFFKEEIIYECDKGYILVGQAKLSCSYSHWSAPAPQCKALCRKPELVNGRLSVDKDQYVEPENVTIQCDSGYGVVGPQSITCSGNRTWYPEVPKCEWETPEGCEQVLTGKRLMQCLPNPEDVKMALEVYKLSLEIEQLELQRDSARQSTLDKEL
UniProt Q96X30: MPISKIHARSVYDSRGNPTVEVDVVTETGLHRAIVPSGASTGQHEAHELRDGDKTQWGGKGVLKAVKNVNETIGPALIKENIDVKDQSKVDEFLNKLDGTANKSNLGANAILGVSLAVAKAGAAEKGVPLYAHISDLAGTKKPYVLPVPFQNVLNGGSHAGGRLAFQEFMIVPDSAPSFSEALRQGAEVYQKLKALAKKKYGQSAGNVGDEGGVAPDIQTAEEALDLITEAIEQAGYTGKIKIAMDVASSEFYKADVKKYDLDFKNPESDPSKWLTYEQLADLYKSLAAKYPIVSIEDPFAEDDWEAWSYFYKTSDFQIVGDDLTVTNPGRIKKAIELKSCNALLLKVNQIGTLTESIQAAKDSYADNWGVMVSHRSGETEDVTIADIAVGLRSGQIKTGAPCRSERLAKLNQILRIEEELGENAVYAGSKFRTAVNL
UniProt P08603, residues 19-1231: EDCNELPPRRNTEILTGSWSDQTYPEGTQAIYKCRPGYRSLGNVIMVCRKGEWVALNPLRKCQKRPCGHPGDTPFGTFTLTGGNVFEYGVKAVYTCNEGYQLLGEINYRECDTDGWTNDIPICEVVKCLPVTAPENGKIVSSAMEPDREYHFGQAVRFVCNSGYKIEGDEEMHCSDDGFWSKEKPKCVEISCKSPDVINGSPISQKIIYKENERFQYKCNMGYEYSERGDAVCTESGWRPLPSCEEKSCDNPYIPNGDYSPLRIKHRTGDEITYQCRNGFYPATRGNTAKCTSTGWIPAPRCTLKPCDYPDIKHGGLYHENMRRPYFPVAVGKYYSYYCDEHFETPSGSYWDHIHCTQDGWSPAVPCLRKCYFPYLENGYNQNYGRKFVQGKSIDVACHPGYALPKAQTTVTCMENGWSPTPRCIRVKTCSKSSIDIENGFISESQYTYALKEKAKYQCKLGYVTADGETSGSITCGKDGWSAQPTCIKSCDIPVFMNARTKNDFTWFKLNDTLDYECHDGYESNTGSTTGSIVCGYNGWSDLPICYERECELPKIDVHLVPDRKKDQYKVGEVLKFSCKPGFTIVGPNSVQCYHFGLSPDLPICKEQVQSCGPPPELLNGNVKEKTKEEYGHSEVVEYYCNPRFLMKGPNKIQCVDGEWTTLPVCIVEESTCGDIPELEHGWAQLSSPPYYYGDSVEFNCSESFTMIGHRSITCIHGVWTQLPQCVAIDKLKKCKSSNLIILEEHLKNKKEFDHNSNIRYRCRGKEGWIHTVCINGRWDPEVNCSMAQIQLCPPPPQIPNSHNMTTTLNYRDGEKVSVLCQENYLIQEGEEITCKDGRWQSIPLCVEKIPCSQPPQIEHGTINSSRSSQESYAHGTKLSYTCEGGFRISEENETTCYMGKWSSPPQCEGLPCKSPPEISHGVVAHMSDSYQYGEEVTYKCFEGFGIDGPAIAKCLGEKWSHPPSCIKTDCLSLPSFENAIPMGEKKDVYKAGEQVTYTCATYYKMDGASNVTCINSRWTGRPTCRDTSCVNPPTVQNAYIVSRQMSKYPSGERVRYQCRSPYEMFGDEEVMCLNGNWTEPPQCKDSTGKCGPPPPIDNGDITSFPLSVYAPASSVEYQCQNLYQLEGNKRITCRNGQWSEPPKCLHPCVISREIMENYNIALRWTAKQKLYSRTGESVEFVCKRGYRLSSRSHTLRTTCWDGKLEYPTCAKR

Legend:
[1] = biological target: human C4b binding protein (C4BP) (human) (UniProt P04003); test: ELISA; factor H, FHL-1, C4BP, plasminogen or gelatin (1 μg/well in DPBS) immobilised, blocked with 0.2% gelatin; AfEno1 at increasing amounts added 1 h at RT; detected with rabbit AfEno1 antiserum; both purified
[2] = biological target: Aspergillus fumigatus enolase (AfEno1), recombinant His-tagged (Aspergillus fumigatus) (UniProt Q96X30); test: ELISA; AfEno1 or gelatin (1 μg/well in DPBS) immobilised on microtiter plate, blocked with 0.2% gelatin; factor H, FHL-1, factor H/FHL-1 deletion mutants, C4BP or plasminogen added 1 h at RT; detected with specific antisera; both purified
[3] = biological target: Aspergillus fumigatus enolase (AfEno1), recombinant His-tagged (Aspergillus fumigatus) (UniProt Q96X30); test: ELISA; AfEno1 immobilised; normal human serum (NHS; 10 mM EDTA for C4BP and plasminogen) at increasing amounts added 1 h at RT; bound regulator detected with specific antiserum; only the target purified
[4] = biological target: Aspergillus fumigatus enolase (AfEno1), recombinant His-tagged (Aspergillus fumigatus) (UniProt Q96X30); test: BLI; His-tagged AfEno1 on Ni-NTA biosensors; factor H, C4BP or plasminogen as analyte; DPBS with 0.001% gelatin, RT; association 250 s, dissociation 250 s; 1:1 model; heat inactivated regulators as non-binding control; both purified

Aspergillus fumigatus enolase (AfEno1), recombinant His-tagged (from UniProt Q96X30 1-438)
binding [1]: binds

human C4b binding protein (C4BP) (from UniProt P04003 49-597; P20851 18-252) (complex)
binding [2]: binds | binding [3]: binds

human factor H (from UniProt P08603 19-1231)
binding [4]: no binding (condition: heat-inactivated (95°C) factor H)
